Results: patent publication US20120100152A1
These are yes or no findings as the source states them, for the method shown. Some entries that bind do so weakly or less than the wild type.

T1: human CD52 (wildtype) (human)
T1 sequence (chain, glycosylated (N-linked glycan), GPI-anchored): GQNDTSQTSSPS

T2: WT 2 wildtype human CD52 peptide (human)
T2 sequence (peptide, by the resolver, chain 1 pos 1, Gly with N-terminal biotin, written G): GQNDTSQTSSPSAD


Key:
[1] = target: T1, human CD52 (wildtype) (human); test: flow cytometry, FITC-labeled antibody (FIG. 85)
[2] = target: T1, human CD52 (wildtype) (human); test: multi-color flow cytometry, human PBMC subsets, FITC-conjugated antibody at 10 µg/ml
[3] = target: T1, human CD52 (wildtype) (human); test: flow cytometry, splenocytes of huCD52 transgenic mice, FITC-conjugated antibody
[4] = target: T1, human CD52 (wildtype) (human); test: flow cytometry, CHO-CD52 cells, methods of Example 22 (antibody at 10 ug/ml, FITC goat anti-human secondary) (Example 28)
[5] = target: T1, human CD52 (wildtype) (human); test: flow cytometry, human PBMC subsets (FIG. 34)
[6] = target: T1, human CD52 (wildtype) (human); test: multi-colour flow cytometry, human PBMC of a normal donor, FITC-conjugated antibody at 10 ug/ml (Example 30)
[7] = target: T1, human CD52 (wildtype) (human); test: flow cytometry, CHO-CD52 cells
[8] = target: T1, human CD52 (wildtype) (human); test: flow cytometry, FITC-labelled antibody on spleen lymphocytes of huCD52 transgenic mice (CD4 T cells, CD8 T cells, B cells)
[9] = target: T1, human CD52 (wildtype) (human); test: flow cytometry, Raji cells, FITC-conjugated antibody at 10 µg/ml
[10] = target: T1, human CD52 (wildtype) (human); test: flow cytometry, CD4+ T cells from human PBMC and from huCD52 transgenic mouse spleen, 8-point 1:3 dilution from 100 ug/mL, FITC goat F(ab)2 anti-human Fc gamma secondary (Example 29)
[11] = target: T1, human CD52 (wildtype) (human); test: flow cytometry, CHO-CD52 cells, methods of Example 22 (antibody at 10 ug/ml, FITC goat anti-human secondary) (Example 24)
[12] = target: T2, WT 2 wildtype human CD52 peptide (human); test: Biacore T100 SPR, antibody immobilized, peptide injected at up to 500 nM

Row | binding [4] | binding [7] | Binder | other results
1 | binds | binds | humanized antibody 9D9-H18/K13 (antibody, V domains shown) VH: EVQLLESGGGLVQPGGSLRLSCAASGFTFSDAWMDWVRQAPGKGLELVAEIRNKAKNHATYYAESVKGRFTISRDNSKNTLYLQMNSLRAEDTAVYYCTTLDSWGQGTTVTVSS VL: DIVMTQTPLSLSVTPGQPASISCKSSQSLLDSDGKTYLNWLLQKPGQSPQRLIYLVSALDSGVPDRFSGSGSGTDFTLKISRVEAEDVGVYYCWQGTHFPWTFGQGTKLEIKR | binding [1]: binds; binding [2]: binds; binding [3]: binds; binding [5]: binds; binding [6]: binds; binding [8]: binds
2 | binds | binds | humanized 9D9 clone: heavy chain variant 9D9-VH17 paired with light chain variant 9D9-VK13 (antibody, human IgG1, V domains shown) VH: EVQLLESGGGLVQPGGSLRLSCAASGFTFSDAWMDWVRQAPGKGLELTSEIRNKAKNHATYYAESVKGRFTISRDNSKNTLYLQMNSLRAEDTAVYYCTTLDSWGQGTTVTVSS VL: DIVMTQTPLSLSVTPGQPASISCKSSQSLLDSDGKTYLNWLLQKPGQSPQRLIYLVSALDSGVPDRFSGSGSGTDFTLKISRVEAEDVGVYYCWQGTHFPWTFGQGTKLEIK | –
3 | binds | binds | humanized 9D9 clone: heavy chain variant 9D9-VH15 paired with light chain variant 9D9-VK13 (antibody, human IgG1, V domains shown) VH: EVQLLESGGGLVQPGGSLRLSCAASGFTFSDAWMDWVRQAPGKGLELTAEIRNKAKNHATYYAESVKGRFTISRDNSKNTLYLQMNSLRAEDTAVYYCTTLDSWGQGTTVTVSS VL: DIVMTQTPLSLSVTPGQPASISCKSSQSLLDSDGKTYLNWLLQKPGQSPQRLIYLVSALDSGVPDRFSGSGSGTDFTLKISRVEAEDVGVYYCWQGTHFPWTFGQGTKLEIK | –
4 | – | binds | humanized 9D9 clone: heavy chain variant 9D9-VH18 paired with light chain variant 9D9-VK12 (antibody, human IgG1, V domains shown) VH: EVQLLESGGGLVQPGGSLRLSCAASGFTFSDAWMDWVRQAPGKGLELVAEIRNKAKNHATYYAESVKGRFTISRDNSKNTLYLQMNSLRAEDTAVYYCTTLDSWGQGTTVTVSS VL: DIVMTQTPLSLSVTPGQPASISCKSSQSLLDSDGKTYLNWLLQKPGQSPKRLIYLVSALDSGVPDRFSGSGSGTDFTLKISRVEAEDVGVYYCWQGTHFPWTFGQGTKLEIK | –
5 | – | binds | humanized 9D9 clone: heavy chain variant 9D9-VH15 paired with light chain variant 9D9-VK12 (antibody, human IgG1, V domains shown) VH: EVQLLESGGGLVQPGGSLRLSCAASGFTFSDAWMDWVRQAPGKGLELTAEIRNKAKNHATYYAESVKGRFTISRDNSKNTLYLQMNSLRAEDTAVYYCTTLDSWGQGTTVTVSS VL: DIVMTQTPLSLSVTPGQPASISCKSSQSLLDSDGKTYLNWLLQKPGQSPKRLIYLVSALDSGVPDRFSGSGSGTDFTLKISRVEAEDVGVYYCWQGTHFPWTFGQGTKLEIK | –
6 | – | binds | humanized 9D9 clone: heavy chain variant 9D9-VH16 paired with light chain variant 9D9-VK12 (antibody, human IgG1, V domains shown) VH: EVQLLESGGGLVQPGGSLRLSCAASGFTFSDAWMDWVRQAPGKGLELVSEIRNKAKNHATYYAESVKGRFTISRDNSKNTLYLQMNSLRAEDTAVYYCTTLDSWGQGTTVTVSS VL: DIVMTQTPLSLSVTPGQPASISCKSSQSLLDSDGKTYLNWLLQKPGQSPKRLIYLVSALDSGVPDRFSGSGSGTDFTLKISRVEAEDVGVYYCWQGTHFPWTFGQGTKLEIK | –
7 | binds | binds | humanized antibody 9D9-H10/K13 (antibody, human IgG1, V domains shown) VH: EVQLLESGGGLVQPGGSLRLSCAASGFTFSDAWMDWVRQAPGKGLEWVSEIRNKAKNHATYYAESVKGRFTISRDNSKNTLYLQMNSLRAEDTAVYYCTTLDSWGQGTTVTVSS VL: DIVMTQTPLSLSVTPGQPASISCKSSQSLLDSDGKTYLNWLLQKPGQSPQRLIYLVSALDSGVPDRFSGSGSGTDFTLKISRVEAEDVGVYYCWQGTHFPWTFGQGTKLEIK | –
8 | binds | binds | humanized antibody 9D9-H16/K13 (antibody, V domains shown) VH: EVQLLESGGGLVQPGGSLRLSCAASGFTFSDAWMDWVRQAPGKGLELVSEIRNKAKNHATYYAESVKGRFTISRDNSKNTLYLQMNSLRAEDTAVYYCTTLDSWGQGTTVTVSS VL: DIVMTQTPLSLSVTPGQPASISCKSSQSLLDSDGKTYLNWLLQKPGQSPQRLIYLVSALDSGVPDRFSGSGSGTDFTLKISRVEAEDVGVYYCWQGTHFPWTFGQGTKLEIKR | binding [1]: binds; binding [9]: binds; binding [2]: binds; binding [3]: binds; binding [10]: binds; binding [5]: binds; binding [6]: binds; binding [8]: binds
9 | binds | binds | humanized antibody 9D9-H11/K12 (antibody, human IgG1, V domains shown) VH: EVQLLESGGGLVQPGGSLRLSCAASGFTFSDAWMDWVRQAPGKGLELTAEIRNKAKNHATYYAESVKGRFTISRDNSKSTVYLQMNSLRAEDTAVYYCTTLDSWGQGTTVTVSS VL: DIVMTQTPLSLSVTPGQPASISCKSSQSLLDSDGKTYLNWLLQKPGQSPKRLIYLVSALDSGVPDRFSGSGSGTDFTLKISRVEAEDVGVYYCWQGTHFPWTFGQGTKLEIK | binding [10]: binds
10 | binds | binds | humanized antibody 9D9-H11/K13 (antibody, human IgG1, V domains shown) VH: EVQLLESGGGLVQPGGSLRLSCAASGFTFSDAWMDWVRQAPGKGLELTAEIRNKAKNHATYYAESVKGRFTISRDNSKSTVYLQMNSLRAEDTAVYYCTTLDSWGQGTTVTVSS VL: DIVMTQTPLSLSVTPGQPASISCKSSQSLLDSDGKTYLNWLLQKPGQSPQRLIYLVSALDSGVPDRFSGSGSGTDFTLKISRVEAEDVGVYYCWQGTHFPWTFGQGTKLEIK | –
11 | – | binds | humanized antibody 2C3-H17/K11 (antibody, human IgG1, V domains shown) VH: EVQLVESGGGLVQPGGSMRLSCAASGFTFNTYWMNWVRQAPGKGLEWVAQIRLKSNNYATHYAESVKGRFTISRDDSKNSVYLQMNSLKTEDTAVYYCTPVDFWGQGTTVTVSS VL: DIVMTQTPLSLSVTPGQPASISCKSSQSLLYSNGKTYLNWYLQKPGQSPQRLIYLVSKLDSGVPDRFSGSGSGTDFTLKISRVEAEDVGVYYCVQGTHLHTFGQGTRLEIK | binding [11]: binds
12 | – | binds | humanized antibody 2C3-SFD1/K1 (antibody, human IgG1, V domains shown) VH: EVQLVESGGGLVQPGGSLRLSCAASGFTFNTYWMNWVRQAPGKGLEWVGQIRLKSNNYATHYAESVKGRFTISRDDSKNSLYLQMNSLKTEDTAVYYCTPVDFWGQGTTVTVSS VL: DIVMTQTPLSLSVTPGQPASISCKSSQSLLYSNGKTYLNWYLQKPGQSPQLLIYLVSKLDSGVPDRFSGSGSGTDFTLKISRVEAEDVGVYYCVQGTHLHTFGQGTRLEIK | binding [11]: binds
13 | – | binds | humanized antibody 2C3-SFD1/K11 (antibody, human IgG1, V domains shown) VH: EVQLVESGGGLVQPGGSLRLSCAASGFTFNTYWMNWVRQAPGKGLEWVGQIRLKSNNYATHYAESVKGRFTISRDDSKNSLYLQMNSLKTEDTAVYYCTPVDFWGQGTTVTVSS VL: DIVMTQTPLSLSVTPGQPASISCKSSQSLLYSNGKTYLNWYLQKPGQSPQRLIYLVSKLDSGVPDRFSGSGSGTDFTLKISRVEAEDVGVYYCVQGTHLHTFGQGTRLEIK | binding [11]: binds
14 | – | – | humanized antibody 12G6-SFD1/K12 (antibody, V domains shown) VH: EVQLVESGGGLVQPGGSLRLSCAASGFPFSNYWMNWVRQAPGKGLEWVGQIRLKSNNYATHYAESVKGRFTISRDDSKNSLYLQMNSLKTEDTAVYYCTPIDYWGQGTTVTVSS VL: DIVMTQTPLSLSVTPGQPASISCKSSQSLLYSNGKTYLNWVLQKPGQSPQRLIYLVSKLDSGVPDRFSGSGSGTDFTLKISRVEAEDVGVYYCVQGSHFHTFGQGTKLEIKR | binding [12]: binds
